No constants are given. Whether binding was seen depends on the method and setting. Some binding calls cover weakened binding; strength is not graded here. Tags and fused reporters may be left off the sequences shown.
Molecular target: T1, Gal4 DNA-binding domain fusion of Rom2 (S. cerevisiae) (UniProt P51862)
T1 sequence: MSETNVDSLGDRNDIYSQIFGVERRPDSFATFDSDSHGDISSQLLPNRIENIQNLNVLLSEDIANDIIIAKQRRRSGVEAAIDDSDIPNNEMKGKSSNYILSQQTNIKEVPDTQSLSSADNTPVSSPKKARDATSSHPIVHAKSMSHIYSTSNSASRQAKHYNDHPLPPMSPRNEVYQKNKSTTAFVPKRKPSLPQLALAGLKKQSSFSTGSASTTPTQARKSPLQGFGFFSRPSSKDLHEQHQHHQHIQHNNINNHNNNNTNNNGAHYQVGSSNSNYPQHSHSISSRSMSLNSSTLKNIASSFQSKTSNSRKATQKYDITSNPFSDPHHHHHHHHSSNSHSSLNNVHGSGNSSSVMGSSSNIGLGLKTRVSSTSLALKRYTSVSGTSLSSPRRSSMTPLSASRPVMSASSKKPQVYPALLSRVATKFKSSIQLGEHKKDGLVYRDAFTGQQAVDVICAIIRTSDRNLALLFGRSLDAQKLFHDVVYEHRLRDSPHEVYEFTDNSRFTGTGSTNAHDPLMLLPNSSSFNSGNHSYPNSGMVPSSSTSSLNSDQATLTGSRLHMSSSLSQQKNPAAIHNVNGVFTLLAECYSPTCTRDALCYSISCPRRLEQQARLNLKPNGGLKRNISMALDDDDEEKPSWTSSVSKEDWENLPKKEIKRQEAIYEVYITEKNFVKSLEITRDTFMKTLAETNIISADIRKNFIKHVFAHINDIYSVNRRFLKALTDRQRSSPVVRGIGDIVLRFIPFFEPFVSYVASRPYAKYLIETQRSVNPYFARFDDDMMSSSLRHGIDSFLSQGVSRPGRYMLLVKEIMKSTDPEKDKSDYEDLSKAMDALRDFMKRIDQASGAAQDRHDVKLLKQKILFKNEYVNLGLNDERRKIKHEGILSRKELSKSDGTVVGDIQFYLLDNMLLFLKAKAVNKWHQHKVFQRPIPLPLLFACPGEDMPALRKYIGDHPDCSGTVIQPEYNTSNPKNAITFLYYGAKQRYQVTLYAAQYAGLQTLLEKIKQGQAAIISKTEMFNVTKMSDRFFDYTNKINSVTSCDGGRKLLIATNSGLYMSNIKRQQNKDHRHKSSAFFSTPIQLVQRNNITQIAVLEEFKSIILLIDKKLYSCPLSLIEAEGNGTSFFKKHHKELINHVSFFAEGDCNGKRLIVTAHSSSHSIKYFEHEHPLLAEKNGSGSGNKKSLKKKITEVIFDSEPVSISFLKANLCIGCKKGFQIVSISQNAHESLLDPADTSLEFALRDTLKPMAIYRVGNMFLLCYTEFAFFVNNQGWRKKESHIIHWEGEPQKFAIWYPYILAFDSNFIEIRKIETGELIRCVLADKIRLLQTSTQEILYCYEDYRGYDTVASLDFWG
Assay: two-hybrid; yeast two-hybrid in PJ69-4a cells; Gal4 DBD fusions (pGBT9-derived) as bait, Gal4 TAD fusions (pACT2-derived) as prey; growth on SC-Leu-Trp-His, 4 days at 30°C

B1: Gal4 transcriptional activation domain fusion of the Aly2 C-terminus (residues 600-1046) (domain or fragment, UniProt P47029 600-1046)
chain: PSTSLTRNSRQFNRNSKSHPSDNTIFNSAKLKSNIYQPESLQRELASPQAIPLSPITSPMSNMEVPPPDFDFSSDFISDAASGTTTTEVSSSESSILPRDPPSYKDTVLHDNNQKRRPNSKHPTPPSLKASHPNKNSDKNSSETLNKKESMSKIEENKHKRETTPKKRENRDVKSLSTPQREESKDSTSTGNQSNEKNRKRVLSLSSSLHSSPNNSGFAHSALGNLSNESLRSLNRRESVQDNLPSTIRHDNPFFTDLNQVLIEDELKNHDKNELNRHSTNTSSTPASARSSFDYSGINISKDKLNMEPLLSKTETLTNKVNEDSFLRPNDSYVDLLEPSVDTTIDITAPYARNSSAWHPLQNDNDNNQFSPLLGSNENFLNAANAQNSAESDHNNDIFTQGSGLTESSKNSDSEERFISRLSSPEKVLINTLDNESGLQSINESTL
binding: binds

Reference: publication PMC4712785
